No constants are given. Whether binding was seen depends on the method and setting. In cells and extracts the contact can be indirect. Some results given as binding are weak or reduced against the parent protein; the word gives no strength. For some assays here: Sequences can lack the tags named with a protein.
Tests used:
[1] = target: T1, Emerin (human (endogenous in HeLa)) (UniProt P50402); test: co-IP; endogenous proteins; confluent HeLa cells with or without IL-6 (40 ng/mL), lysed (RIPA buffer), immunoprecipitated with antibodies against emerin, blotted for STAT3 or p-STAT3
T1 sequence: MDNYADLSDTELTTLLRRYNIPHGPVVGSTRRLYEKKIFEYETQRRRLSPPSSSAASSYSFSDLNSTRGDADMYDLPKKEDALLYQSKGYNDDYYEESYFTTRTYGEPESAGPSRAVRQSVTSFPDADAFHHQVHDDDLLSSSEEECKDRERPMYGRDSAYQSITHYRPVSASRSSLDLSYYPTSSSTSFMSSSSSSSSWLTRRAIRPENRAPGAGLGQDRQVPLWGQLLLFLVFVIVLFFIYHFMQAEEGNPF

Protein sequences, listed by entry. Tags and fused reporters are not part of them. Lines headed by an entry give the natural chain unless they say otherwise; changes in a name come on top. Chains listed by the source or under a name are the forms on record and can include a tag or linker.
UniProt P40763: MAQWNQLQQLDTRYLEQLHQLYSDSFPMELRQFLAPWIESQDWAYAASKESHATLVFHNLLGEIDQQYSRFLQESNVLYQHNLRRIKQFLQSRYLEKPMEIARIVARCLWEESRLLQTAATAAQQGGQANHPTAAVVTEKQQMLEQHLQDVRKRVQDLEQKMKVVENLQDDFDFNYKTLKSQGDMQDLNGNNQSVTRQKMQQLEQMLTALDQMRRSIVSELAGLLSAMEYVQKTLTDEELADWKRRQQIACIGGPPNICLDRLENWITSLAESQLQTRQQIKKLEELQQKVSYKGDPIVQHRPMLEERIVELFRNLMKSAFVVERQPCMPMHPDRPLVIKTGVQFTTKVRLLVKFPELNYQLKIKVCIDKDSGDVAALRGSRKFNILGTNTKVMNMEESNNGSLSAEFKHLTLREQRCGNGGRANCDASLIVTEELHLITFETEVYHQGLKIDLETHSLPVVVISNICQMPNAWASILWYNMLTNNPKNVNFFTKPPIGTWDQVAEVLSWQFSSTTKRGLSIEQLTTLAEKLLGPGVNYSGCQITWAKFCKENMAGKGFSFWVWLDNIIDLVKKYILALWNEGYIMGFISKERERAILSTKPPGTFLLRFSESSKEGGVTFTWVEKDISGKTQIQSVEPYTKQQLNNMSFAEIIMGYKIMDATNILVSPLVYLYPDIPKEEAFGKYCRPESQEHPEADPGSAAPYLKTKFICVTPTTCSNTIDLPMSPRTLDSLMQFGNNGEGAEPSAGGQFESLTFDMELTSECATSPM
Flag-STAT3 (P40763-2, form named): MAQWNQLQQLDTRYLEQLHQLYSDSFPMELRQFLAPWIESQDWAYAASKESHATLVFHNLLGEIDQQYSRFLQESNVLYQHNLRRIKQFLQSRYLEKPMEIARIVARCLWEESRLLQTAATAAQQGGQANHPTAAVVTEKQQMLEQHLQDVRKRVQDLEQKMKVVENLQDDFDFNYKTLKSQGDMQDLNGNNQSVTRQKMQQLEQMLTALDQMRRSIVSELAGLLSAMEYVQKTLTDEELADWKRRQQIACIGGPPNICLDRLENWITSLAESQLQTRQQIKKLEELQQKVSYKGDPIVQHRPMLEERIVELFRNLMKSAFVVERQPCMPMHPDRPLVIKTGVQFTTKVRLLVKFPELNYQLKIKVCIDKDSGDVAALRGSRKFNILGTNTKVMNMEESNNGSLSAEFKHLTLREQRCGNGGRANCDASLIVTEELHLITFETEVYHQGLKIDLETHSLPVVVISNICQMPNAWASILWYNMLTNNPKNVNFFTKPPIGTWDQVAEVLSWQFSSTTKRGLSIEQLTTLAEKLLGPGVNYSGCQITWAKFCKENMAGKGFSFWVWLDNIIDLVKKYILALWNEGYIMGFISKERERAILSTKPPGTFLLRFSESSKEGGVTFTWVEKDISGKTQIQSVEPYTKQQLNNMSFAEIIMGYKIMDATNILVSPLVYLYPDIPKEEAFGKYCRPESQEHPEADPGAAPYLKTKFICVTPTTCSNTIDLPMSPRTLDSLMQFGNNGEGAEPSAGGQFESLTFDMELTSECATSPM

[2] = target: T2, HA-Emerin deletion mutant D5 (human) (UniProt P50402); test: co-IP; HeLa cells co-transfected with HA-Emerin deletion mutants (6 ug) and Flag-STAT3 (6 ug) for 24 h; lysate immunoprecipitated with anti-HA overnight at 4 C, blotted with anti-Flag
T2 sequence: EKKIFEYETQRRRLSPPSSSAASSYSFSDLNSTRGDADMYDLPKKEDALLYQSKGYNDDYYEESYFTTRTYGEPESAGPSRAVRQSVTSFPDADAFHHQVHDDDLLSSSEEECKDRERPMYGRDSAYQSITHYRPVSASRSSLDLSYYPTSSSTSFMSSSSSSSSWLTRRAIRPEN

[3] = target: T3, HA-Emerin deletion mutant D4 (human) (UniProt P50402); test: as above
T3 sequence: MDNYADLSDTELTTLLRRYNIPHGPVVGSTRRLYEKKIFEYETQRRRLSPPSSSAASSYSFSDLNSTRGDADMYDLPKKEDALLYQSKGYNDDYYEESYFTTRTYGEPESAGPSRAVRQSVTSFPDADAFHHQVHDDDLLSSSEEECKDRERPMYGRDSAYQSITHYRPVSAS

[4] = target: T4, HA-Emerin deletion mutant D1 (human) (UniProt P50402); test: as above
T4 sequence: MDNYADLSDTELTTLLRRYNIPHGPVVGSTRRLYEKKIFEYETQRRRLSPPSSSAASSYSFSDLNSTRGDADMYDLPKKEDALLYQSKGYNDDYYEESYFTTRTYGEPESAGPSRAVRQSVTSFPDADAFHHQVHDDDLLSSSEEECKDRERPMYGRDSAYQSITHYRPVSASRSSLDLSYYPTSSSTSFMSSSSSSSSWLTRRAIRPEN

| binding [1] | binding [2] | binding [3] | binding [4] | Substance |
| --- | --- | --- | --- | --- |
| binds |  |  |  | phosphorylated STAT3 (from UniProt P40763 1-770) |
| binds |  |  |  | Signal transducer and activators of transcription 3 (STAT3) (from UniProt P40763 1-770) |
|  | binds weakly | binds | binds | Flag-STAT3 (from UniProt P40763-2 1-769) |
